These are yes or no findings as the source states them, for the method shown. Binding seen in cells or lysates may run through a third protein. Here binding means that the protein was enriched with, or labelled near, the bait; the list need not be complete.

The chains behind the UniProt entries cited, without tags or fusion partners.
UniProt P51449: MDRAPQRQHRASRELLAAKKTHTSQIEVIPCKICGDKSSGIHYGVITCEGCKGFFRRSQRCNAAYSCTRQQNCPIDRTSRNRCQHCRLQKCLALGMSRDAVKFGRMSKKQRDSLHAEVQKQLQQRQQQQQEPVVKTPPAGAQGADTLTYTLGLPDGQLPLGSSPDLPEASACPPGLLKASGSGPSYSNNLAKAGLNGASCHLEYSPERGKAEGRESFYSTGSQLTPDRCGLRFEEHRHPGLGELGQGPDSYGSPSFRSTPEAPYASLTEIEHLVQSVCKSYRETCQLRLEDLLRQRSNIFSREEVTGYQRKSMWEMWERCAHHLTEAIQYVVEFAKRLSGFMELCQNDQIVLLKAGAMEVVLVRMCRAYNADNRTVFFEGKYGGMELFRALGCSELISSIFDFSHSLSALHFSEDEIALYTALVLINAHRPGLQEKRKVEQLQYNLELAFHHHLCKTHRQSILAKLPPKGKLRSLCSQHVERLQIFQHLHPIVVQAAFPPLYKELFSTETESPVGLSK
UniProt Q92793: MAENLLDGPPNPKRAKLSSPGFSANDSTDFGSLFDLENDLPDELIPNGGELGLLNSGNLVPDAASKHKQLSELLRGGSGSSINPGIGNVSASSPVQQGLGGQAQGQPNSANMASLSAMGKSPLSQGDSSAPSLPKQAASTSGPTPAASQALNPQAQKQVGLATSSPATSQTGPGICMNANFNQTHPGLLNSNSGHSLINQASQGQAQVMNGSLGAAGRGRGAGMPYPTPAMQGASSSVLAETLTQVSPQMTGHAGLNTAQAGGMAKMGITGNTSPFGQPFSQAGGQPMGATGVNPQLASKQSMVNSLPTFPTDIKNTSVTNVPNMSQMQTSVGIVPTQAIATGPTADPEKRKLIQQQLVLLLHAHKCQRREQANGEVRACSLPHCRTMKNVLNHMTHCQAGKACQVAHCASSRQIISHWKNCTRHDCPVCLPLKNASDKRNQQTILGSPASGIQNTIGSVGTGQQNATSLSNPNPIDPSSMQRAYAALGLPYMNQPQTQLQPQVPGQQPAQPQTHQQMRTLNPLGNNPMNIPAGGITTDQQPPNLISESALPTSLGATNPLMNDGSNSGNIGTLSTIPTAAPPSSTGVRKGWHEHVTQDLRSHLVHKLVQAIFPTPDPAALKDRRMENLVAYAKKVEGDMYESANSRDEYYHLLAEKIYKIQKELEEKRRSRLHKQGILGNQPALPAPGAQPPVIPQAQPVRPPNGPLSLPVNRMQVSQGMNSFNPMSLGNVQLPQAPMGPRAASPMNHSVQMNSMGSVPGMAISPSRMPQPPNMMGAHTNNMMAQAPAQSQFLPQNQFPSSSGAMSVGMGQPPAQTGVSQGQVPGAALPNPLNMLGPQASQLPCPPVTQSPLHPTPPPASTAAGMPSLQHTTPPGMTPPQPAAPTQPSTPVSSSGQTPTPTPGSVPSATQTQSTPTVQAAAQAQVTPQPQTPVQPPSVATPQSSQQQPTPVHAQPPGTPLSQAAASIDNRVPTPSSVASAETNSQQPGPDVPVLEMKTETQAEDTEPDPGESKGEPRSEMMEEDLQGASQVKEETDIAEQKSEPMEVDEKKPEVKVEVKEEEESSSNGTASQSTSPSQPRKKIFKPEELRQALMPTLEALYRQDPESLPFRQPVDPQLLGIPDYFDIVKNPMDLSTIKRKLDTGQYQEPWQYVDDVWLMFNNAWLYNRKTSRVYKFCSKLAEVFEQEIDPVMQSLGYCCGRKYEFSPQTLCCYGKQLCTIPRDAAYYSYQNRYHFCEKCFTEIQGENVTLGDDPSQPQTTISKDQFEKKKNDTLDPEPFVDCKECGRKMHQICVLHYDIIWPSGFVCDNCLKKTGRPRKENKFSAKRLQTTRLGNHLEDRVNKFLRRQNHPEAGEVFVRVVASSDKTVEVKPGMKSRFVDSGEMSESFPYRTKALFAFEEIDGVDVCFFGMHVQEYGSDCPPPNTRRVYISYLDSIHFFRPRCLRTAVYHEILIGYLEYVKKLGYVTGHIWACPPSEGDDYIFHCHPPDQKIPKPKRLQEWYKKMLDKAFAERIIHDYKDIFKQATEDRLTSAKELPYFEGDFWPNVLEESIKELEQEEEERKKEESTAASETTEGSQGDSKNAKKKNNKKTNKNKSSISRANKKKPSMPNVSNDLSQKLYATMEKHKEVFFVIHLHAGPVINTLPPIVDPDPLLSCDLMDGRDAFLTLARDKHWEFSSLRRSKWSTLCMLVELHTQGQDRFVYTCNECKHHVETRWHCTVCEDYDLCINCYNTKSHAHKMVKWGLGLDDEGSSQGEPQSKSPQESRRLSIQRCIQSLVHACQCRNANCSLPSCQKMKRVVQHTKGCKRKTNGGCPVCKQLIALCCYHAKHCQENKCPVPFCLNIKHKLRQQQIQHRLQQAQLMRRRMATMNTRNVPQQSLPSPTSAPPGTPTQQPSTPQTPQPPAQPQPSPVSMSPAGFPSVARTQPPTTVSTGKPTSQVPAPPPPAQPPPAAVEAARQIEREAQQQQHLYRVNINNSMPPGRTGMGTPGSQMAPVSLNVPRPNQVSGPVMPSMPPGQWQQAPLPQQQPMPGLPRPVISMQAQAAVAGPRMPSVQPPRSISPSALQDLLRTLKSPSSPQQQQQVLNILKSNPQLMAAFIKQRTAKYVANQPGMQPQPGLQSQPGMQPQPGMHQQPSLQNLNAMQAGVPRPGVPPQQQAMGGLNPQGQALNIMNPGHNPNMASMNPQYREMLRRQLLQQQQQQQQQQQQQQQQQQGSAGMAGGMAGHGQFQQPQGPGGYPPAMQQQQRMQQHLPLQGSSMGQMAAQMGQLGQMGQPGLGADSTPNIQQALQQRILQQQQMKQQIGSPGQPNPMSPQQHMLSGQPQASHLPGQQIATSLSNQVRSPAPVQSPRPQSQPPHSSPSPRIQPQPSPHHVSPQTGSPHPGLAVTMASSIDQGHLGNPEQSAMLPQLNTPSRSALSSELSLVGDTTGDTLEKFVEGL
UniProt Q13547: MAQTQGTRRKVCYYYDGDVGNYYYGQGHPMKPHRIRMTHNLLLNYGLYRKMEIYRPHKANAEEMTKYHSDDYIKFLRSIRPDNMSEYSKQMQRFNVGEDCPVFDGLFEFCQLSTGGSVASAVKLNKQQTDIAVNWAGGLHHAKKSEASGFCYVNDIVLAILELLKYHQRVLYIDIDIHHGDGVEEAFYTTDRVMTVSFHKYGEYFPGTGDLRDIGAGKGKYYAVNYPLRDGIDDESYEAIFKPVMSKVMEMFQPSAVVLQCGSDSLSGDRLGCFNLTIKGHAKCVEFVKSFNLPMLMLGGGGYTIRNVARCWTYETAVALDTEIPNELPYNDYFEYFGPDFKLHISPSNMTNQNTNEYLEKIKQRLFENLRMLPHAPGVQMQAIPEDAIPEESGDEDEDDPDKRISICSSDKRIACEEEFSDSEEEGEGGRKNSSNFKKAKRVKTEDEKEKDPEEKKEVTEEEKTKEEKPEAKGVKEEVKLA
UniProt Q09472: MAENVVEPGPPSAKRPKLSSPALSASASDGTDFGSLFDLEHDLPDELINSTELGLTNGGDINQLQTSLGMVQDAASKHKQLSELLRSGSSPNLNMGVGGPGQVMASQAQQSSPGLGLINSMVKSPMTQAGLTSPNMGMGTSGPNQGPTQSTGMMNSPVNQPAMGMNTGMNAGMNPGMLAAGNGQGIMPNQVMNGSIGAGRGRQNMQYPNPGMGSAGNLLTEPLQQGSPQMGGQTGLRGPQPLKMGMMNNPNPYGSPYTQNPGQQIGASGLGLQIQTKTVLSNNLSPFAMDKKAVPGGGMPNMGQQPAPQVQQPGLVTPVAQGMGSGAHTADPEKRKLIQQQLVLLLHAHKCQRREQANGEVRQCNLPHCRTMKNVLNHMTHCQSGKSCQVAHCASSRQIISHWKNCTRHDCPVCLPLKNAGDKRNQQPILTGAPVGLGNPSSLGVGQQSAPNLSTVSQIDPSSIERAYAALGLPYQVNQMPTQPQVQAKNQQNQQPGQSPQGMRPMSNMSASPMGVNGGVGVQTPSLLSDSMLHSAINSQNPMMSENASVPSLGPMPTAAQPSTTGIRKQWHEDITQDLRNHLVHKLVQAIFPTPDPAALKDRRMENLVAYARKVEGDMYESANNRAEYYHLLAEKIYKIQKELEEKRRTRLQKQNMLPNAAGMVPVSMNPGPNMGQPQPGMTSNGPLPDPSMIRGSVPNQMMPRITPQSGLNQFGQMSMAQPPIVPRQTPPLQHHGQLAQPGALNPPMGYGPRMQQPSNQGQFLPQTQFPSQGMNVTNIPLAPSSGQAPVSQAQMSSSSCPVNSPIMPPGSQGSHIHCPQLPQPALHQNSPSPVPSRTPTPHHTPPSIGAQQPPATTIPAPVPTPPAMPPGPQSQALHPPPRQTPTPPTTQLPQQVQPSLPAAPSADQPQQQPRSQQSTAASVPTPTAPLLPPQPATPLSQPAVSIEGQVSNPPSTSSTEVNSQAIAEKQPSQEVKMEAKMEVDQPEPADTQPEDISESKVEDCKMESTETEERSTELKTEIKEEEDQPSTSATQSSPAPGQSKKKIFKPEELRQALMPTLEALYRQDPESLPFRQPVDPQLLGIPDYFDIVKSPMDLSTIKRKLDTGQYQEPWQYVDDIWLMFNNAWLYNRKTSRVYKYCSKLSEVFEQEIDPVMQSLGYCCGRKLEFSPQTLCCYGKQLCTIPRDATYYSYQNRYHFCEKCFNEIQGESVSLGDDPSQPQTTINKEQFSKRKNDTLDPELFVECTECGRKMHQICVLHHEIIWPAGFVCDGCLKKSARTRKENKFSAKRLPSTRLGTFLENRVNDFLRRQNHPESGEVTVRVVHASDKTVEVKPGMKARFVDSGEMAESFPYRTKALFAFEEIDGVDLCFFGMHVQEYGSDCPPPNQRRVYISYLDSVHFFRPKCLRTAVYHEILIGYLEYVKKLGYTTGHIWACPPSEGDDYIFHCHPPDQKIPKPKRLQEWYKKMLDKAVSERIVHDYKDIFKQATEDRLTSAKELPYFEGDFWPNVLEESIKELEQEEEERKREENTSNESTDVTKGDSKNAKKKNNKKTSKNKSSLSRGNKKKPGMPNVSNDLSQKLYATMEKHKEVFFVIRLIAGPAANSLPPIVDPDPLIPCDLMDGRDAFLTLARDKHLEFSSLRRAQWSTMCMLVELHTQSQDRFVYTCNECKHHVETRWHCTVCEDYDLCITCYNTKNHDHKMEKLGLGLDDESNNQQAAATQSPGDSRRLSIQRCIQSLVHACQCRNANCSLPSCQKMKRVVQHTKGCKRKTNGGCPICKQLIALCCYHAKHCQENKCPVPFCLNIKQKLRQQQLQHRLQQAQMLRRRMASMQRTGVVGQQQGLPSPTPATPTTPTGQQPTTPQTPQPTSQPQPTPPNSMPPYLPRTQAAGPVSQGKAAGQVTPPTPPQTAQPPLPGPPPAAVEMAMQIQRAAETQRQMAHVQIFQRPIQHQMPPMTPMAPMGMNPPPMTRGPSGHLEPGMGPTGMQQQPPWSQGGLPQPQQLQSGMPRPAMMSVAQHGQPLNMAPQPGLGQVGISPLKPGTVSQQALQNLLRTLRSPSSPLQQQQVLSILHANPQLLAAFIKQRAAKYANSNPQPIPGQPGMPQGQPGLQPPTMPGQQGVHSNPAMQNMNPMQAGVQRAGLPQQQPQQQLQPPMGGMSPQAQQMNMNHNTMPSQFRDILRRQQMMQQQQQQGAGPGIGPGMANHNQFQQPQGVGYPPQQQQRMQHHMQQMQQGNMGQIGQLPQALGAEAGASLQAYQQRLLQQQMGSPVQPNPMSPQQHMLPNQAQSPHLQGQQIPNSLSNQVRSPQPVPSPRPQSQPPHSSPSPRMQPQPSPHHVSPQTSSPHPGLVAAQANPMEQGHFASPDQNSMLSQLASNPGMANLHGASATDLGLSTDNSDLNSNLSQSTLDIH

The target of this test is RORC (bait of the mass spectrometry of RORC-bound proteins) (UniProt P51449). Briefly: affinity purification with mass spectrometry; mass spectrometry of proteins bound to RORC in NK-92 cells.
As to “CBP (found by mass spectrometry with RORC in NK-92 cells) (from UniProt Q92793 1-2442) (enzyme)”, the binding entry is reported as “binds”.

Turning to “HDAC1 (found by mass spectrometry with RORC in NK-92 cells) (from UniProt Q13547 1-482) (enzyme)”, the binding result is “binds”.

For “p300 (found by mass spectrometry with RORC in NK-92 cells) (from UniProt Q09472 1-2414) (enzyme)”, the binding result is given as “binds”.

These data come from paper PMC12095603.
